Results published in PubChem BioAssay AID1794845 (National Center for Advancing Translational Sciences (NCATS), 2023).
The campaign covered roughly 6,900 compounds. Fewer than 10 were called active. Calls follow the shape of the dose curve; as a rule, active = well fitted curve in the direction sought with a large enough effect; inconclusive = small, poorly fitted or top-dose-only effect, or another doubt; inactive = no such curve, though single readings can be large or run the other way. Some of the results follow.

Sequences of proteins named here, by UniProt entry; tags and fusion partners are left off. A change or cut given only in a name is not applied to a line headed by its entry.
UniProt C7C422: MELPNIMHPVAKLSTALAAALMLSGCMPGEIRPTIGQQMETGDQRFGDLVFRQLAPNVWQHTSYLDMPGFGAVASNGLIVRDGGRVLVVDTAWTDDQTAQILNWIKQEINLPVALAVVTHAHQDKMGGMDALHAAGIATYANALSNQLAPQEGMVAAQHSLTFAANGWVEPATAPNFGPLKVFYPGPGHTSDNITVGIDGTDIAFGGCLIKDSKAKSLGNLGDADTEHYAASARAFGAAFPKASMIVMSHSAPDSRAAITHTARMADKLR

These compounds were tested against Metallo-beta-lactamase type 2 (Klebsiella pneumoniae) (UniProt C7C422) (assay: qHTS to identify inhibitors of the New Delhi Metallo-beta-lactamase (NDM): primary screen against the NCATS Gemini Collection). Conditions: NDM-1 enzyme, meropenem hydrolysis, absorbance 300 nm; at 38.4 µM (top of the series) unless noted.
Outline: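 NDM-1 at 2 nM final in 50 mM HEPES pH 7.0, 1 uM ZnSO4, 0.01% Tween20, preincubated >30 min with compound. Meropenem 50 uM final added; absorbance at 300 nm after 30 min.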
Also: % of control where 0% means no effect.

Activity % (negative = inhibition), inactive:
O=C(O)CCC1CCCN(S(=O)(=O)c2ccc(F)cc2)C1 (stereo not drawn) 1.23%
CC(C)N1C[C@H](O)C[C@H]1c1nnc2n1CCN(C(=O)c1ccco1)CC2 8.27%
COc1cccc(CN2CC(Oc3ccccc3C(=O)NC3CC3)C2)c1 47%
O=C(CN1CCOCC1)NC1CCc2nnc(C3CC3)n2CC1 (stereo not drawn) -2.23%
O=C(COc1cccc(-c2nnc3n2CCCC3)c1)Nc1ccc(Cl)cc1F 8.11%
CCCC1(C(=O)O)CCCN(S(=O)(=O)c2ccsc2C(=O)O)C1 (stereo not drawn) -4.63%
CN1CCCC2(CCN(C(=O)CCc3ccc(Cl)cc3)C2)C1=O (stereo not drawn) 3.42%
O=C(COc1ccc(Cl)cc1)N1CCc2nn(CC3CC3)c(=O)n2CC1 2.97%
COc1ncccc1-c1csc(CN2CCCC(C)(NC(C)=O)C2)c1 (stereo not drawn) 9.37% [at 57.5 µM]
Cc1nn(-c2ccccc2)c2c1C(C)N(C1CCN([S+](=O)([O-])c3ccccc3)CC1)C2=O (stereo not drawn) 11.5%
CC(C)NC(=O)C[C@@H]1O[C@H](CNC(=O)C2CC2)[C@@H](O)[C@H]1O 10.6% [at 57.5 µM]
Oc1ccccc1CN1CC(CNc2cccnc2)C2(C1)CN(c1ccccc1)C2 (stereo not drawn) 28.9% [at 57.5 µM]
COc1ccccc1OCCNC(=O)C1(C)CCCCC(=O)N1 (stereo not drawn) -0.782%
COc1ccc(-c2cc(C[C@H]3CNCC[C@H]3CC(=O)N3CCN(C)CC3)no2)cc1 27.9% [at 57.5 µM]
COc1ccc(CN[C@H]2CC(C)(C)[C@@H]3C[C@@](C)(O)CC[C@]23CCC(=O)NCc2ccco2)cc1 0.334%
OCCc1cc(CC2(NCc3ccc(CO)o3)COC2)no1 -0.284% [at 57.5 µM]
COc1cc(NC(=O)O[C@@H]2CC[C@]3(C)C(CC[C@@H](O)[C@H]3CC(=O)N3CC[C@H](NC(C)=O)C3)[C@]2(C)CO)cc(OC)c1 (stereo partly drawn) 3.07%
O=C(Cn1nc2c(cc1=O)CCCC2)N1CCOCC1 8.36%
O=C(Nc1cccnc1)c1cnc2c(c1)N(Cc1ccccc1)CCC2 55.2% [at 57.5 µM]
COc1ccc2c(c1)CN(C1CCN(C)CC1)CC[C@H]1COC(=O)N21 19.3% [at 57.5 µM]
Fc1ccc(OCc2nc(C3CCNCC3)no2)cc1 27.2%
CCN1c2cc(C(=O)Nc3ccccc3OC)ccc2C(=O)N2CCCCCC21 (stereo not drawn) 13.5%
CC1CCN(CC2CCCCCN2C(=O)Nc2ccc3c(c2)OCCO3)CC1 (stereo not drawn) 15.7%
CC1CCN(CC2CCCN(C(=O)NC3CCCCC3)CC2)CC1 (stereo not drawn) -9.26%
O=C(c1ccncc1)N1CCCC(Cc2noc(-c3cnccn3)n2)C1 (stereo not drawn) -0.0591%
Cc1noc(C)c1S(=O)(=O)N1C[C@@H](Oc2cccnc2)C[C@H]1C(N)=O -3.24%
CC1(NC(=O)C2CC2)CN(c2ccc(OC(F)(F)F)cc2)C1 -2.27% [at 57.5 µM]
COc1ccccc1C(=O)N1CCC2(CC1)C(=NC1CCCCC1)NC(=O)N2c1cccnc1 4.34%
O=C(C1CCCC1)N1CC2(CCN(Cc3cccnc3)CC2)Cc2ccccc21 -4.68%
COc1cccc(C(=O)N2CCCN(CCn3nc4n(c3=O)CCCC4)CC2)c1 0.654%
Cc1cccc(Nc2nc(N)nc(CN3CC[C@@](O)(C4CCC4)[C@H](C)C3)n2)c1 15.3%
COc1ccc(S(=O)(=O)Nc2ccc3n(c2=O)C[C@H]2C[C@@H]3CN(C(=O)Nc3cc(OC)cc(OC)c3)C2)cc1 1.93%
CCN(CC)C(=O)c1cc2c(s1)CCC(C(=O)O)C2 (stereo not drawn) 25.1%
Cc1cccc(OCc2c(C(=O)N3CCCC3c3nncn3CCN(C)C)noc2C)c1 (stereo not drawn) -0.226%
O=C1CCCN1CCCN1C(=O)[C@H]2CN(Cc3ccc(Cl)cc3)C[C@H]2C1=O -6.58%
O=C1c2ccccc2CN1C1CCN(Cc2cccc3ccccc23)CC1 -1.67%
CC(C)(C)CC(=O)NC[C@H]1OC[C@@H](NC2CCCC2)[C@@H]1O -1.93% [at 57.5 µM]
CCS(=O)(=O)N1C[C@@H]2CN(Cc3ncc[nH]3)C[C@]2(C(=O)O)C1 -7.35%
Cn1cccc1C(=O)N1CC(CO)C2(CCNCC2)C1 (stereo not drawn) 31.5%
CN1CCC(C(=O)N2CCC3(CC2)CN(C(=O)c2ccc(Cl)cc2)CCO3)CC1 -11.6%
COC(=O)NCCNC(=O)c1cccc(-c2ccc(SC)cc2)c1 6.72%
COc1ccccc1N1CCN(C(=O)C[C@@H]2C[C@@H](C(C)C)[C@H](CO)C=C2C)CC1 5.32% [at 57.5 µM]
CN1CC(=O)N(C2CCCC2)Cc2c(NC3CCCC3)ncnc21 0.231% [at 57.5 µM]
CCNc1ncc(C(=O)NC2CC(c3nnc(CO)n3CC)C2)cn1 (stereo not drawn) 5.26%
COc1cccc(CN2C[C@@H]3C(C(=O)O)[C@@H]3C2)c1OCCn1ccnc1 (stereo partly drawn) -2.15%
COc1ccc([C@H]2CN(C(=O)C3(c4ccc(F)cc4)CC3)C[C@@H]2N)cc1 -16.7%
COCCn1c(C)cnc1C1CCN(S(=O)(=O)c2ccc(C#N)cc2)C1 (stereo not drawn) -6.01%
O=c1c2nc(Nc3cccnc3)ccc2ncn1-c1ccc(F)cc1F 17.4% [at 57.5 µM]
O=C1CCCCC(C(=O)N2CCCCC2)N1 (stereo not drawn) -11.9%
COC(=O)[C@@H](Cc1cccnc1)NC(=O)[C@@H]1CN(C(=O)c2cccc(F)c2)CCN1C(=O)C1CCCCC1 -0.572%
COc1ccc(CCN2CC(NC(=O)Cn3ccc(C)n3)CC2=O)cc1 (stereo not drawn) -4.85%
Cc1nn(CCO)cc1CN1CCC2(CC1)C(C(=O)O)CC(=O)N2C (stereo not drawn) -1.69%
N#Cc1ccc(CN2CCC3(CC(c4cccc(C(F)(F)F)c4)=NO3)C2)cc1 (stereo not drawn) -0.427%

Random excerpt: 2 records from the list.
Activity % (negative = inhibition), inactive:
COC(=O)NCCNC(=O)c1cccc(-c2ccc(SC)cc2)c1 6.72%
O=C(Cn1nc2c(cc1=O)CCCC2)N1CCOCC1 8.36%

Reprinted from the listing, three compounds:
Activity % (negative = inhibition), inactive:
O=C1CCCN1CCCN1C(=O)[C@H]2CN(Cc3ccc(Cl)cc3)C[C@H]2C1=O -6.58%
O=C1c2ccccc2CN1C1CCN(Cc2cccc3ccccc23)CC1 -1.67%
CC(C)(C)CC(=O)NC[C@H]1OC[C@@H](NC2CCCC2)[C@@H]1O -1.93% [at 57.5 µM]
